Measured values taken from the supplement of paper PMC3682954.
Where a name gives a salt, the structure may show the parent alone. ± gives the standard deviation of the averaged measurements. The list shows a part of the results. Most values come without repeats; read them as rough.

System: RAW 264.7
Assay: HMGB1-induced TNF-alpha production relative to HMGB1-stimulated control; higher = more TNF-alpha secretion (less inhibition)
Conditions: stimulus: HMGB1 5 ug/ml, 18 h
[1] = compound concentration: 1 ug/ml

Structure (SMILES) | HMGB1-induced TNF-alpha production (compound concentration: 3 uM) | HMGB1-induced TNF-alpha production [1]
CCCc1c(OCCCOc2ccc(OCC(=O)O)cc2)ccc(C(C)=O)c1O | 93.4% | 
CC1=C(C(=O)O)N2C(=O)[C@@H](NC(=O)[C@H](N)c3ccccc3)[C@H]2SC1 [Cephalexin hydrate] | 81.6% | 
CC1=C(C(=O)O)N2C(=O)[C@@H](NC(=O)[C@H](N)c3ccccc3)[C@H]2SC1 [Cephalexin monohydrate] | 83.4 ± 21% | 
CC1=C(C(=O)O)N2C(=O)[C@@H](NC(=O)[C@H](N)c3ccccc3)[C@H]2SC1 | 84% | 
Cc1nccn1CC1CCc2c(c3ccccc3n2C)C1=O (stereo not given) [Ondansetron] | 83.7% | 
Cc1nccn1CC1CCc2c(c3ccccc3n2C)C1=O (stereo not given) [Ondansetron Hydrochloride] | 120% | 
Cc1nccn1CC1CCc2c(c3ccccc3n2C)C1=O (stereo not given) | 110% | 
CC(=O)NCCCCCCNC(C)=O | 117% | 
NC(=O)c1cc[n+](CC2=C(C(=O)[O-])N3C(=O)[C@@H](NC(=O)Cc4cccs4)[C@H]3SC2)cc1 | 93.1% | 
O=C1C(O)=C(O)C(=O)C(O)=C1O | 81.6% | 
O=C1C(O)=C(O)C(=O)C(O)=C1O [Tetrahydroxy-1,4-quinone monohydrate] | 112% | 
CC(=O)NC[C@H]1CN(c2ccc(N3CCOCC3)c(F)c2)C(=O)O1 [Linezolid] | 92.1 ± 14% | 
CC(=O)NC[C@H]1CN(c2ccc(N3CCOCC3)c(F)c2)C(=O)O1 | 84.7% | 
O=c1c2ccccc2[nH]c(=S)n1CCN1CCC(=C(c2ccc(F)cc2)c2ccc(F)cc2)CC1 [Diacylglycerol Kinase Inhibitor II] | 86% | 
CSc1ccc(OCCN=Cc2c(O)c(O)c(C(C)C)c3cc(C)c(-c4c(C)cc5c(C(C)C)c(O)c(O)c(C=NCCOc6ccc(SC)cc6)c5c4O)c(O)c23)cc1 |  | 50.4%
Cc1cc(O)cc2oc(-c3ccccc3)cc(=O)c12 [7-Hydroxy-5-methylflavone] |  | 64.2%
CC(C)CCCC(C)C1CCC2C3CC=C4CC(O)CCC4(C)C3CCC12C (stereo not given) |  | 73.4%
Cc1c2oc3c(C)ccc(C(=O)N[C@@H]4C(=O)N[C@H](C(C)C)C(=O)N5CCC[C@H]5C(=O)N(C)CC(=O)N(C)[C@@H](C(C)C)C(=O)O[C@@H]4C)c3nc-2c(C(=O)N[C@@H]2C(=O)N[C@H](C(C)C)C(=O)N3CCC[C@H]3C(=O)N(C)CC(=O)N(C)[C@@H](C(C)C)C(=O)O[C@@H]2C)c(N)c1=O | -0.851 ± 1.9% | 
COc1ccc2c(c1)c(CC(=O)OCC(=O)O)c(C)n2C(=O)c1ccc(Cl)cc1 [Acemetacin] | 63.2 ± 19% | 
COc1ccc2c(c1)c(CC(=O)OCC(=O)O)c(C)n2C(=O)c1ccc(Cl)cc1 | 81.5% | 
COc1ccc2cc3[n+](cc2c1OC)CCc1cc2c(cc1-3)OCO2 | 99.1 ± 2.2% | 
Nc1ncnc2c1ncn2[C@H]1CC[C@@H](CO)O1 [2',3'-Dideoxyadenosine] |  | 59.7%
CC[C@@H]1Cc2cc(O)ccc2C2=C1c1ccc(O)cc1C[C@H]2CC [(R,R)-cis-Diethyl tetrahydro-2,8-chrysenediol] | 68.8% | 
OCC(S)CS (stereo not given) | 57.5% | 
CC(C)Cn1c(=O)n(C)c(=O)c2nc[nH]c21 [Isobutylmethylxanthine] | 97.6% | 
N=C(N)SCCN [2-(2-Aminoethyl)isothiourea dihydrobromide] | 109% | 
CCCCC1C(=O)N(c2ccccc2)N(c2ccccc2)C1=O | 93.1% | 
CCCCC1C(=O)N(c2ccccc2)N(c2ccccc2)C1=O [Phenylbutazone] | 95.1 ± 7.1% | 

Structure (SMILES) | HMGB1-induced TNF-alpha production (compound concentration: 3 uM) | HMGB1-induced TNF-alpha production [1]
CNCCCCOc1ccccc1Cc1ccccc1 [Bifemelane] | 80.5% | 
COCCCOc1cc(C[C@@H](C[C@H](N)[C@@H](O)C[C@H](C(=O)NCC(C)(C)C(N)=O)C(C)C)C(C)C)ccc1OC | 99.3% | 
CCCCOC(=O)c1ccc(O)cc1 | 97% | 
CCCCOC(=O)c1ccc(O)cc1 [Butylparaben] | 98.9% | 
C#C[C@]1(OC(C)=O)CC[C@H]2[C@@H]3CCC4=CC(=O)CC[C@@H]4[C@H]3CC[C@@]21C | 92.3% | 
CCCc1nc2c(C)cc(-c3nc4ccccc4n3C)cc2n1Cc1ccc(-c2ccccc2C(=O)O)cc1 [Telmisartan] | 96.6 ± 8.4% | 
CCCc1nc2c(C)cc(-c3nc4ccccc4n3C)cc2n1Cc1ccc(-c2ccccc2C(=O)O)cc1 | 78.8% | 
O=C(O)Cc1ccc(O)c(O)c1 [3,4-Dihydroxyphenylacetic acid] | 91.1% | 
NC(N)=NCCC[C@H](NC(=O)c1ccccc1)C(=O)O [N-à-Benzoyl-L-arginine] |  | 95.6%
CC(=O)/N=c1/sc(S(N)(=O)=O)nn1C | 79.4% | 
CC(=O)/N=c1/sc(S(N)(=O)=O)nn1C [Methazolamide] | 134% | 
CC1=CC(=O)c2ccccc2C1=O | 62.4% | 
N=C(N)N1CCc2ccccc2C1 | 94.4% | 
N=C(N)N1CCc2ccccc2C1 [Debrisoquin] | 116% | 
N=C(N)N1CCc2ccccc2C1 [Debrisoquin sulfate] | 81.6 ± 4.2% | 
CC(Cc1ccc(O)c(O)c1)C(C)Cc1ccc(O)c(O)c1 (stereo not given) [Nordihydroguaiaretic acid] |  | 37.7%
CCN(CC)CCCN(c1ccccc1)C1Cc2ccccc2C1 [Aprindine hydrochloride] | 90.1% | 
COCCCOc1ccnc(C[S+]([O-])c2nc3ccccc3[nH]2)c1C (stereo not given) [Rabeprazole] | 103% | 
O=C(O)Cc1cc(I)c(Oc2ccc(O)c(I)c2)c(I)c1 [Tiratricol, 3,3',5-triiodothyroacetic acid] | 69.2% | 
O=C(O)Cc1cc(I)c(Oc2ccc(O)c(I)c2)c(I)c1 | 102% | 
NS(=O)(=O)C#Cc1ccccc1 [Pifithrin-mu] | 49.4% | 
Nc1c(S(=O)(=O)O)cc(Nc2ccc(Nc3nc(Cl)nc(Nc4cccc(S(=O)(=O)O)c4)n3)c(S(=O)(=O)O)c2)c2c1C(=O)c1ccccc1C2=O [Reactive Blue 2] | 90.7% | 
CSc1nc(N)c2ncn([C@@H]3O[C@H](COP(=O)(O)OP(=O)(O)O)[C@H](O)C3O)c2n1 (stereo not given in full) | 97% | 
Cc1ccc(C(=O)C(C)CN2CCCCC2)cc1 (stereo not given) | 86.5% | 
CNCC[C@@H](Oc1ccccc1C)c1ccccc1 [Tomoxetine hydrochloride] | 110% | 
CNCC[C@@H](Oc1ccccc1C)c1ccccc1 [Tomoxetine] | 105% | 
CNCC[C@@H](Oc1ccccc1C)c1ccccc1 | 50.7% | 

Single records, as listed above:
CNCC[C@@H](Oc1ccccc1C)c1ccccc1 is entered as HMGB1-induced TNF-alpha production (compound concentration: 3 uM): 50.7%
O=C(O)Cc1cc(I)c(Oc2ccc(O)c(I)c2)c(I)c1 is entered as HMGB1-induced TNF-alpha production (compound concentration: 3 uM): 102%
